Experimental data reported in patent publication US11583528B2, “FFA1 (GPR40) as a therapeutic target for neural angiogenesis diseases or disorders” (Children's Medical Center Corporation, priority 2016, dated 2023).
For at least one compound, name, drawing or mass did not settle the structure.

Columns and labels:
Glut1 = Glut1 expression in photoreceptor (661W) cells; type: cell-based; details: 661W photoreceptors; PD98059, 20 μM; SP600125; Ffar1 siRNA
Description: RNA samples from cell culture, whole retina or laser-captured neovessels and layers were treated with DNase I (Qiagen, Chatsworth, Calif.) to remove any contaminating genomic DNA. The DNase-treated RNA was then converted into cDNA using reverse transcriptase (Invitrogen). PCR primers for target genes and the control gene, cyclophilin A, were designed using Primer Bank and NCBI Primer Blast software. Quantitative analysis of gene expression was generated using an ABI Prism 7700 Sequence Detection System with the SYBR Green Master mix kit and gene expression was calculated relative to cyclophilin A using the ΔcT method.
Cone photoreceptor cells (al-Ubaidi, M. R., J Cell Biol 119, 1681-1687 (1992), and Tan, E., et al. Invest Ophthalmol Vis Sci 45, 764-768 (2004)) (661W; from Dr. Al-Ubaidi) were cultured as monolayers at 37° C., 5% CO2 in a humidified atmosphere in DMEM with FBS 10% supplemented with hydrocortisone (20 μg/500 mL, H-2270, Sigma), Progesterone (20 μg/500 mL, P-8783, Sigma), Putrescine (0.016 g/500 mL, P-7505, Sigma) and β-mercaptoethanol (20 μL/500 mL, M-6250, Sigma). […] Photoreceptors were then collected 8 hours post-treatment for Hif1α protein expression (see Western blot); while their medium was collected at 12 hours for Vegfa quantification by ELISA (as per manual, MMV00, R&D Systems). […]

retinas = test: Oxygen consumption rate of ex vivo retinas (Seahorse XFe96); type: cell-based, mouse
Description: (§1) All oxygen consumption rates were measured using a Seahorse XFe96 Flux Analyzer®. Whole retinas were isolated and 1 mm punch biopsies were loaded into the 96 well plate. Retinal punches were incubated in assay media (DMEM 5030 media supplemented with 12 mM glucose, 10 mM HEPES and 26 mM NaHCO3) to measure oxygen consumption rates (OCR) and extracellular acidification rates (ECAR). Photoreceptor (661W) cells, were incubated in their assay media (DMEM 5030, 12 mM glucose, 10 mM HEPES) one hour prior to measurements. Fatty acid oxidation rates were determined by treating tissues or cells with Etomoxir (40 μM; Sigma) 40 min prior to analysis and then providing BSA (control) or BSA/Palmitate conjugate (Seahorse). Glucose oxidation rates were measured after injection of 2-deoxyglucose (2-DG, 100 mM; Sigma) or media control during data acquisition. To determine the maximal fatty acid or glucose oxidative capacity, the nonmitochondrial respiration (rate after injection of 2 μM Rotenone and 2 μM Antimycin A) was subtracted from the oxygen consumption rate after injection of 0.5 μM carbonyl cyanide-ptrifluoromethoxyphenylhydrazone (FCCP).

photoreceptors (661W) = test: Oxygen consumption and extracellular acidification rates of photoreceptor (661W) cells (Seahorse XFe96); type: cell-based; details: 661W photoreceptors; palmitate; GW9578 100 nM, 48 hours
Description: as §1

| SMILES | effect on FFA1-mediated Glut1 suppression by GW9508 (Glut1) | maximal OCR / mitochondrial respiration (retinas; Vldlr−/− retinas, palmitate vs control) | oxygen consumption rates (OCR) (retinas; WT retinal explants provided with palmitate) | maximal OCR (retinas; wild type (WT) retinas, palmitate vs control) | mitochondrial respiration by FA β-oxidation (OCR) (photoreceptors (661W)) |
| --- | --- | --- | --- | --- | --- |
| Oc1c2ccccc2c2c3c(cccc13)N=N2 [SP600125] | not | – | – | – | – |
| CCCCCCCCCCCCCCCC(=O)O [palmitate] | – | not and did not increase | doubling | increased | increased |
